The results in this text go back to US20110224133A1.

Amino acid sequences for entries named in this document (tags omitted).
UniProt Q9NT62: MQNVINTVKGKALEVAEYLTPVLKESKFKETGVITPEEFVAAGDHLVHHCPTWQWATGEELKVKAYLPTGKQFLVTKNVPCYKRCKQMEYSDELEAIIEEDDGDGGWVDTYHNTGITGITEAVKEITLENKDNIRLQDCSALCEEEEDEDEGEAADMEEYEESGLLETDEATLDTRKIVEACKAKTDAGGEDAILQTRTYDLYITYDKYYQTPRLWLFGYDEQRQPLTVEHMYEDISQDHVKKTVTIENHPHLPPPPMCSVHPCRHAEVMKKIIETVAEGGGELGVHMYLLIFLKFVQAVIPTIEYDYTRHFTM

No constants are given. Whether binding was seen depends on the method and setting. For some of these results: Binding seen in cells or lysates may run through a third protein. Some entries that bind do so weakly or less than the wild type.

The target in one test is GFP-Atg3 (UniProt Q9NT62). In words: co-immunoprecipitation with αFlag or αGFP from HEK293T cells.
For test [1], the target named is Atg3 clone from a cDNA library of EBV-transformed human B-lymphocytes (yeast two-hybrid prey) (human) (UniProt Q9NT62). In words: yeast two-hybrid screen.
Test [2] has as its target GST-Atg3 (human Atg3, full length) (human) (UniProt Q9NT62). In words: GST pulldown from HEK293T cells.

Take “Flag-KSHV vFLIP (from UniProt F5HEZ4 1-188)”: in the test with GFP-Atg3, the binding entry is recorded as “binds”. In the case of “Gal4-vFLIP fusion (yeast two-hybrid bait) (from UniProt F5HEZ4 1-188)”, in test [1], the binding entry is listed as “binds”.

With “KSHV vFLIP with the DED1 α2 helix deleted (from UniProt F5HEZ4 1-188)”, in test [2], the binding entry was “binds”. Still for that read-out and setting: the value for “KSHV vFLIP with the DED2 α4 helix deleted (from UniProt F5HEZ4 1-188)” was “binds”.
